Consider one substance from patent US20070104726A1.

The chains behind the UniProt entries cited, without tags or fusion partners. Residues count along the entry.
UniProt P20023, residues 21-148: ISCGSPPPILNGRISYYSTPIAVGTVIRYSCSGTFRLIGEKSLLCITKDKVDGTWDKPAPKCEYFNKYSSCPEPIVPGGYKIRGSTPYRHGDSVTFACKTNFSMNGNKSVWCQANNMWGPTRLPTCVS
UniProt P01024, residues 1002-1303: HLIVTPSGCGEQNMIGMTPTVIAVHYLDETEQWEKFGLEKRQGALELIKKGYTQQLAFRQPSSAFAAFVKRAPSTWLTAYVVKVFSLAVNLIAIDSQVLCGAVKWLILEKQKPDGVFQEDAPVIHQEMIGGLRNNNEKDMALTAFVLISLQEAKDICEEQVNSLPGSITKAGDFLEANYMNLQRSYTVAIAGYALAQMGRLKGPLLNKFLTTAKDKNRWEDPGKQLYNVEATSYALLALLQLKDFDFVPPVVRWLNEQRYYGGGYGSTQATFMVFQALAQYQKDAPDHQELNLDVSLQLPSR

These are yes or no findings as the source states them, for the method shown. Some results given as binding are weak or reduced against the parent protein; the word gives no strength.

This test deals with IgG constant region-CD21 fusion protein (UniProt P20023). The test can be described thus: ELISA, IgG constant region-CD21 fusion coated, detection with biotinylated anti-C3d antibody. In general terms: In an ELISA, binding on a coated surface is turned into a signal by an enzyme label.

For the substance “human C3d (Calbiochem) (from UniProt P01024 1002-1303) (ligand)”, the binding entry is on record as “binds”.
